Measurements reported in publication PMC3041725.
No constants are given. Whether binding was seen depends on the method and setting. In cells and extracts the contact can be indirect. Some results given as binding are weak or reduced against the parent protein; the word gives no strength. For some assays here: Sequences can lack the tags named with a protein.

By UniProt entry, the sequences of proteins in these tests, tags left out.
UniProt P29555: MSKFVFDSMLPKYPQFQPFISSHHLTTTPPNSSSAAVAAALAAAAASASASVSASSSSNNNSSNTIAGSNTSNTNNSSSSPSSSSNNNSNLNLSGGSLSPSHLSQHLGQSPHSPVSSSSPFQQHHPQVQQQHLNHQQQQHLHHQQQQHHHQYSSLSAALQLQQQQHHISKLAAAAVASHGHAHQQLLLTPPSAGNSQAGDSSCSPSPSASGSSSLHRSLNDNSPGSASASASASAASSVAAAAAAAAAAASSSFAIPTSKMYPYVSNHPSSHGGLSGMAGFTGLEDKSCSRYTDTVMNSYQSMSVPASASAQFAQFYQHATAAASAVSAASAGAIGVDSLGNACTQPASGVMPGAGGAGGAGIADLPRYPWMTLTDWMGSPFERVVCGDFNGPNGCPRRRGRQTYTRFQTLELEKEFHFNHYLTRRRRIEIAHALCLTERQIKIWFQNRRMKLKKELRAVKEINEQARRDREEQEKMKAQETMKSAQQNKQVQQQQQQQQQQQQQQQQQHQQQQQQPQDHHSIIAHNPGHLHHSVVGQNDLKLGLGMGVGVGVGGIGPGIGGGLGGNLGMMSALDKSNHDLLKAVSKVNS
UniProt P83949: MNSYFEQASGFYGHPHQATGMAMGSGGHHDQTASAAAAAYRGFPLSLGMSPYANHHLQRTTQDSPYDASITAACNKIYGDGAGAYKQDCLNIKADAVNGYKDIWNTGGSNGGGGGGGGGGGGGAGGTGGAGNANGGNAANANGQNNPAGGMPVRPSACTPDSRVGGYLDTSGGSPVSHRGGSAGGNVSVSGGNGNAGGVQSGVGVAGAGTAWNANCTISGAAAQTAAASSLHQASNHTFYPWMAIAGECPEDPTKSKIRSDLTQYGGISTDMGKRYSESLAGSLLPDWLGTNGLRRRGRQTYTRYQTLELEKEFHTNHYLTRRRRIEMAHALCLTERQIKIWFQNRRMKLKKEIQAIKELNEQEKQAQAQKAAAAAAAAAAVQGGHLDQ

How the values were obtained:
[1] = biological target: VC-AbdA fusion protein, expressed in Drosophila embryos (Drosophila melanogaster) (UniProt P29555); assay: split reporter; split Venus (VN 1-173, VC 155-238) BiFC in living Drosophila embryos; fusion proteins expressed by UAS/Gal4 (abdA-Gal4, en-Gal4, btl-Gal4 and others); embryos kept at 4°C for 28 h before confocal imaging
[2] = biological target: CC-Exd fusion protein (C-terminal fragment of Cerulean fused to Exd), expressed in Drosophila embryos (Drosophila melanogaster) (UniProt P40427); assay: split reporter; BiFC with split mCherry or split Cerulean fragments (abdA-Gal4) and multicolour BiFC with VN, CN and CC fusions (en-Gal4) in living Drosophila embryos; 28 h at 4°C; AxioImagerZ1 microscope with specific filters
[3] = biological target: VC-AbdA fusion protein, expressed in Drosophila embryos (Drosophila melanogaster) (UniProt P29555); assay: split reporter; competition against split Venus BiFC in living Drosophila embryos: an unfused ('cold') protein co-expressed with the two fusion proteins
[4] = biological target: T1, Exd-VC fusion protein, expressed in Drosophila embryos (Drosophila melanogaster) (UniProt P40427); assay: split reporter; split Venus (VN 1-173, VC 155-238) BiFC in living Drosophila embryos; fusion proteins expressed by UAS/Gal4 (abdA-Gal4, en-Gal4, btl-Gal4 and others); embryos kept at 4°C for 28 h before confocal imaging
T1 sequence: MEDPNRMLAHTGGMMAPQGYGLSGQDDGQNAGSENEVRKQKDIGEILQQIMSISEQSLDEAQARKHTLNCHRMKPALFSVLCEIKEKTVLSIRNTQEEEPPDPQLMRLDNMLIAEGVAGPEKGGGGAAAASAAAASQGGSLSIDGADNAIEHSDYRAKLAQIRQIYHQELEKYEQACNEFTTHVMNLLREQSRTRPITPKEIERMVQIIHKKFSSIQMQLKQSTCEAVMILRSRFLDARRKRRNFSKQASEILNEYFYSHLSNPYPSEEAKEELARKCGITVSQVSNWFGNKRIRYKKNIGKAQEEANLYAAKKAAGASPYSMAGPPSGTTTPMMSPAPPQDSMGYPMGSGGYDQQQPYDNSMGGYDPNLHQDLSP

VN-Ubx fusion protein, expressed in Drosophila embryos (from UniProt P83949 1-389)
binding [1]: binds
binding [2]: binds

VN-AbdA fusion protein, expressed in Drosophila embryos (from UniProt P29555 1-590)
binding [3]: binds
binding [1]: binds
binding [4]: binds weakly
